Source: paper PMC7374751

Chains of the proteins cited; added tags and fusions are not shown. Lines headed by an entry give the natural chain unless they say otherwise; changes in a name come on top.
UniProt O14672: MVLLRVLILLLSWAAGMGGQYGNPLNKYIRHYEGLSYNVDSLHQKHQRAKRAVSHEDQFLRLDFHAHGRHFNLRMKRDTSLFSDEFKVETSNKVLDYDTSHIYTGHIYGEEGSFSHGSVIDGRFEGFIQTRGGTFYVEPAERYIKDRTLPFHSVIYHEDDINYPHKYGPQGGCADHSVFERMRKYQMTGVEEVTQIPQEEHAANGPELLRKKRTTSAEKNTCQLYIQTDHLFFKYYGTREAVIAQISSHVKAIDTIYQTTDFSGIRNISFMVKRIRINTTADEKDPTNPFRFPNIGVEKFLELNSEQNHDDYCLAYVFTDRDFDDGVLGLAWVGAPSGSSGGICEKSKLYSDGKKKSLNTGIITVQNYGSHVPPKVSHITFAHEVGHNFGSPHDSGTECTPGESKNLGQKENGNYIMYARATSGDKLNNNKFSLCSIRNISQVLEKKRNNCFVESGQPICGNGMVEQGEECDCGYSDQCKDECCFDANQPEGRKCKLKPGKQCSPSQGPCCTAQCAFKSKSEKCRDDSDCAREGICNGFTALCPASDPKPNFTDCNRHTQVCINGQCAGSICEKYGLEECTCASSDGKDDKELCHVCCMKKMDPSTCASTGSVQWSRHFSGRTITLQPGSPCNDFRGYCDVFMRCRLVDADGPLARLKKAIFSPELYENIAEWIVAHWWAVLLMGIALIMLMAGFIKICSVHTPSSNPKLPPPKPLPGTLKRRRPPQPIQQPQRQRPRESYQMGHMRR
UniProt O75173: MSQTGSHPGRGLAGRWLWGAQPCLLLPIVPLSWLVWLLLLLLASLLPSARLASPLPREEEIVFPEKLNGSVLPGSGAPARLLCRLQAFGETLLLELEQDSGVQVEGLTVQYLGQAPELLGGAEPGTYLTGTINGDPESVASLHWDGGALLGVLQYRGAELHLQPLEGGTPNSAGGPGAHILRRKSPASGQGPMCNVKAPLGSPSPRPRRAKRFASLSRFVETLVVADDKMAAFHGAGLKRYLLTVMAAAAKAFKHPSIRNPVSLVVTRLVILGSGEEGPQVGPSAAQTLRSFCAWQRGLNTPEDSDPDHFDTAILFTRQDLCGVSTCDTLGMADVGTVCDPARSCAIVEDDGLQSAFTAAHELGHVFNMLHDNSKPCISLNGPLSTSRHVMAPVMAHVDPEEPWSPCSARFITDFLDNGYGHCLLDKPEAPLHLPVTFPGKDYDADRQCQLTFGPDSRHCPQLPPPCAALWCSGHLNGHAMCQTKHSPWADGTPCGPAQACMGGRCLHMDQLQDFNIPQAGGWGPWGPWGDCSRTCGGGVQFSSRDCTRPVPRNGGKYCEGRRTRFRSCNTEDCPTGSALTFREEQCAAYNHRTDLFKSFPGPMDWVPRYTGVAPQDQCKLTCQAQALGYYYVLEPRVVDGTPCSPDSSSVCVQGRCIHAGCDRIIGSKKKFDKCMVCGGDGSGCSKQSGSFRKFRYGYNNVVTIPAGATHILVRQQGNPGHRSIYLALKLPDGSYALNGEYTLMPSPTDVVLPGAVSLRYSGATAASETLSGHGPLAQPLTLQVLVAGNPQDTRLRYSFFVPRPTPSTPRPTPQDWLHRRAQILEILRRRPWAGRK
UniProt Q9UNA0: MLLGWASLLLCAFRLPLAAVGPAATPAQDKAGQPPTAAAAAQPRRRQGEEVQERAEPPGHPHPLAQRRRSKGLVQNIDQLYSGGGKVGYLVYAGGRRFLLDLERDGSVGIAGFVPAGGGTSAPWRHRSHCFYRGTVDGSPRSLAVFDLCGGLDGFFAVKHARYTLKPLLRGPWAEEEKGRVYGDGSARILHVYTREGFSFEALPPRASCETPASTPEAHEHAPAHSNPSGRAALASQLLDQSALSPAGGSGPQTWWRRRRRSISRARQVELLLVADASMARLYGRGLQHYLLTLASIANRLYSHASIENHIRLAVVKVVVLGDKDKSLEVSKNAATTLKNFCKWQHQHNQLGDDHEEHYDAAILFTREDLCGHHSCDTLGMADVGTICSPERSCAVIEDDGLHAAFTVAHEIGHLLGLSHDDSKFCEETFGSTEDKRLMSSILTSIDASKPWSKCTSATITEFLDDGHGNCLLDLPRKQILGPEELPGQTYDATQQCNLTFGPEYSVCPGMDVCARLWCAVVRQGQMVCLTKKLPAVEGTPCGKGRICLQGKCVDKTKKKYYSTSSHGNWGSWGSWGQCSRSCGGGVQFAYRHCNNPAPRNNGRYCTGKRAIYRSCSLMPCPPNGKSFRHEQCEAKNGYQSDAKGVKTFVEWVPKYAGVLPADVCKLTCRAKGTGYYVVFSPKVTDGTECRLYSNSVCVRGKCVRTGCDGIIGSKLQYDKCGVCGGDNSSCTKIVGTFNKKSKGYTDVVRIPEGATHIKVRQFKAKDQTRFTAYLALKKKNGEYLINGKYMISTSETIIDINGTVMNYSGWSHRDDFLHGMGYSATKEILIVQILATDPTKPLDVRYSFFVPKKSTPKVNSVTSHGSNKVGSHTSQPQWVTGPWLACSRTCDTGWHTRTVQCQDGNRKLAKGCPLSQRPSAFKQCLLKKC
UniProt P03956: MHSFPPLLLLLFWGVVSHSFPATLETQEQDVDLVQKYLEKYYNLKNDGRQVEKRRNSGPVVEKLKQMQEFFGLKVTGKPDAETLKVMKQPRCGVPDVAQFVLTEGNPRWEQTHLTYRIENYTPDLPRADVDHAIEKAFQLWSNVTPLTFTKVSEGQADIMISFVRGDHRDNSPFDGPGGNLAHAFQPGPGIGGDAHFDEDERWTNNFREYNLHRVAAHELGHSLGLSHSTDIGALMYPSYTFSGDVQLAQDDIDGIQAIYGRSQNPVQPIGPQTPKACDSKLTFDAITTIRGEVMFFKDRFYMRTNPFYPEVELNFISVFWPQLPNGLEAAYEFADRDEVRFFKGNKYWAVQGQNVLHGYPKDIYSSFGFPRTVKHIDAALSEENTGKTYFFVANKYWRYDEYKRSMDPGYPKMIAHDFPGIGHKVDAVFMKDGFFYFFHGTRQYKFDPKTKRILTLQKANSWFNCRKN

What was measured:
Assay in all cases: complex pre-formed in solution, read by SPR on immobilised LRP-1; equimolar enzyme and TIMP (5-80 nM) incubated 1 h at 37 °C before injection over LRP-1; the enzyme-TIMP pair is told by the changed binding of the mixture; both purified
ADAM10 ectodomain = ADAM10 ectodomain (UniProt O14672)
[1] = target: ADAMTS5-4, truncated FLAG-tagged ADAMTS-5
[2] = target: FLAG-tagged ADAMTS-4 lacking the C-terminal spacer domain (ADAMTS4-2) (UniProt O75173)
[3] = target: FLAG-tagged ADAMTS-5 lacking the C-terminal thrombospondin domain (ADAMTS5-2) (UniProt Q9UNA0)
[4] = target: catalytic domain of human MMP-1 (MMP-1ΔC) (human) (UniProt P03956)
[5] = target: full length MMP-1 (human)

binding (ADAM10 ectodomain): binds
binding [1]: binds
binding [2]: binds
binding [3]: binds
binding [4]: binds
binding [5]: binds
B1: FLAG-tagged TIMP-3 (protein, UniProt P35625 24-211)
chain: CTCSPSHPQDAFCNSDIVIRAKVVGKKLVKEGPFGTLVYTIKQMKMYRGFTKMPHVQYIHTEASESLCGLKLEVNKYQYLLTGRVYDGKMYTGLCNFVERWDQLTLSQRKGLNYRYHLGCNCKIKSCYYLPCFVTSKNECLWTDMLSNFGYPGYQSKHYACIRQKGGYCSWYRGWAPPDKSIINATDP

Results are given in words; binding and its absence hold for the method and conditions named. Binding calls can cover weak binding; strength is not graded here. Where a sequence is shown, tags or fusion partners need not be part of it.
